No constants are given. Whether binding was seen depends on the method and setting. In cells and extracts the contact can be indirect. Here binding means that the protein was enriched with, or labelled near, the bait; the list need not be complete.
Target: AT-rich interactive domain-containing protein 1A (dog (endogenous in MDCK))
Assay: affinity purification with mass spectrometry; IP of endogenous ARID1A from 1 mg pre-cleared MDCK lysate (RIPA buffer: 50 mM Tris-HCl pH 7.4, 150 mM NaCl, 1 mM EDTA, 0.5% Triton X-100) with mouse monoclonal anti-ARID1A and protein G sepharose, 4 °C overnight; SDS-PAGE, in-gel tryptic digestion, nanoLC-ESI-LTQ-Orbitrap MS/MS; proteins found in the isotype IgG IP subtracted

B1: Coiled-coil domain-containing protein 39 (protein, UniProt E2R1I5 1-939)
chain: MSSELLEELHWDDGFAIPVANEENKMLEDQLSKLQEERASLQDQLRDYEDRINAMTSHFKNVKQEFSFTQSLCKAREHEIESEEHFKIIAERELGRIKDEIQRLENEMTSIREKKSDKENNIFKTTQKLDGLKCQINWDQQALEAWLEESAHKDSDALTLQKYAQQDDNKIRALTLQLERLTLECNQRRKVLDNELTETLSAQLELDKAAQDFRKIHNERQELIKQWENTIEQMRKRDRDIDNGALALARIKQELREKENLVKEKIKFLESEIGNNTEYEKRISVADRKLLKCRTEYQHHETNRNQLKDELDSLKATVNRSSSDLEALRKNISKIKKDIQEETARLQKIKNHNQSVKKKLKQITEKTMSVEEKATNLEDMLREEEKSVKEVEVQLNIVKDVLFKKVQELQTEAMKEKAVVSEIEGTRSSLKHLNHQLHKLDFETLKQQEIMYSQDFYIQQVERRMSRLKGEINSEEKQALETKIVELKKILEEKKSTFDLLESQIKKLHNDLYFIKKSNSKNCDEKQFLMTKVNELNLFNDRSEKELNKTKALKQDLMIEDNLLKLEVKRTREMLHSKAEEVLSLEKRKQQLHTAMEERMEEIKVHKTMLASQIRYIDQERQNLSAEFHERLSKIDKLKNRYEILTVVMLPPEGEEEKTQAYYVIKAAQEKEELQREGDSLDAKINKAEKEIYALENTLQVLRSCNNNYKQSFQKITPSSDEYELKIQLEEQKRAIDEKYRYKQRQIRELQEDIQSMENTLEVIEHLTNNVKEKLSEKQAYSSQLNRETEEQRPKLERVTKQCAKLTKEIRLLKDTKDETLEEQDIKLREVKHFHKIIDEMLAEVTEENAEIHIILQTYFQQNGLELPTAGTKGSRQSSRSPSQTSLLSARSTTSVASQTSIKVLELNFPASSSVTGNISRPASATTIPSNGKNKKGSK
  binding: binds

B2: Dolichyl-diphosphooligosaccharide protein glycosyltransferase 48 kDa subunit (protein, UniProt Q05052 33-445)
chain: GPRTLVLLDNLNLRETHSLFFRSLKDRAFELTFKTADDPSLSLIKYGEFLYDNLIIFSPSVEDFGGNINVETISTFIDGGGSVLVAASSDIGDPLRELGSECGIEFDEEKTAVIDHHNYDVSDLGQHTLIVADPENLLKAPTIVGRSSLNPILFRGVGMVADPDNPLVLDILTGSSTSYSFFPDKPITQYPHAVGKNTLLIAGLQARNNARVVFSGSLDFFSDAFFNSAVQKAAPGSQRYSQTGNYELAVALSRWVFKEEGVLRVGPVSHHRVGETAPPNAYTVTDLVEYSIVIEQLSNGRWVPFDGDDIQLEFVRIDPFVRTFLKKKGGKYSVQFKLPDVYGVFQFKVDYNRLGYTHLHSSTQVSVRPLQHTQYERFIPSAYPYYASAFSMMLGLFIFSTVFLHMKEKEKSD
  binding: binds

B3: Dolichyl-diphosphooligosaccharide protein glycosyltransferase subunit 1 (protein, UniProt E2RQ08 25-607)
chain: SPEAPLLVNEDVKRTVDLSSHLAKVTAEVVLAHPGGGSTARAASFLLALEPELEARLAHLGVQVKGEDEEENNLEVRETKIKGKSGRFFTVKLPVALDPGAKVSVVVETVYTHVLQPYPTQITQSEKQFVVFEGNHYFYSPYPTKTQTMRVKLASRNVESYTKLGNPTRSEDLLDYGPFRDIPAYSQDTFKVHYENNSPFLTITSMTRVIEVSHWGNIAVEENVDLKHTGAVLKGPFSRYDYQRQPDSGIASIRSFKTILPAAAQDVYYRDEIGNVSTSHLLILDDSVEMEIRPRFPLFGGWKTHYIVGYNLPSYEYLYNLGDQYALKMRFVDHVFDEQVIDSLTVKIILPEGAKNIQVDSPYEISRAPDELHYTYLDTFGRPVIVAYKKNLVEQHIQDIVVHYTFNKVLMLQEPLLVVAAFYILFFTVIIYVRLDFSITKDPAAEARMKVACITEQVLTLVNKRIGLYRHFDETINRYKQSRDVSTLNSGKKSLETEHKALTSEIASLQSRLKTEGSDLCDKVSEMQKLDAQVKELVLKSAVEAERLVAGKLKKDTYIENEKLISGKRQELVTKIDHILDAL
  binding: binds

B4: RabGDP dissociation inhibitor beta (protein, UniProt O97556 1-445)
chain: MNEEYDVIVLGTGLTECILSGIMTVNGKKVLHMDRNPYYGGESASITPLEDLYKRFKIPGAPPASMGRGRDWNLDLIPKFLMANGQLVKMLLYTEVTRYLDFKVTEGSFVYKGGKIYKVPSTEAEALASSLMGLFEKRRFRKFLVYVANFDEKDPRTFEGIDPKKTAIGEVYKKFDLGQDVIDFTGHALALYRTDDYLDQPCCETINRIKLYSESLARYGKSPYLYPLYGLGELPQGFARLSAIYGGTYMLNKPIEEIIVQNGKVIGVKSEGEVARCKQLICDPSYVKDRVEKVGQVIRVICILSHPIKNTNDANSCQIIIPQNQVNRKSDIYVCMISSAHNVAAQGKYIAIVSTTAETKEPEKEIRPALELLEPIEQKFVSISDLLVPKDLGTESQIFISRTYDATTHFETTCDDIKNIYKRMTGSEFDFEEMKRKKNDIYGED
  binding: binds

B5: Ras-related protein Rab-11A (protein, UniProt P62490 1-216)
chain: MGTRDDEYDYLFKVVLIGDSGVGKSNLLSRFTRNEFNLESKSTIGVEFATRSIQVDGKTIKAQIWDTAGQERYRAITSAYYRGAVGALLVYDIAKHLTYENVERWLKELRDHADSNIVIMLVGNKSDLRHLRAVPTDEARAFAEKNGLSFIETSALDSTNVEAAFQTILTEIYRIVSQKQMSDRRENDMSPSNNVVPIHVPPTTENKPKVQCCQNI
  binding: binds

From paper PMC10683333
